Screen size: about 31,000 sequences; about 1,400 (4.5%) were called active.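 Rule for the calls: active = median seed-adjusted z-score above 1 or below -1; inactive = the rest.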 The list shows a part of the results.

The nature of this test: Novel Modifiers of Survival Motor Neuron (SMN) Protein: Gene Identification via Genome-wide siRNA Screen.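 Note: luminescence tracks full-length SMN protein made from the SMN2 reporter.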 The settings on record: HEK293T SMN2-luciferase reporter, siRNA knockdown, 72 h; actives lie on both sides. A digest of the protocol: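 Luciferase signal, proportional to full-length SMN made from an SMN2 cDNA reporter in stable HEK293T cells, was read 72 h after siRNA reverse transfection. Values were expressed as MAD scores after non-targeting-control normalization and log10 conversion; seed analysis flagged off-targets.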
As to CAAGGAACUAUGUACAAAATT against POU4F1, the median seed-adjusted z-score was inactive: -0.138. In the case of GCAACAAUCAGAUCGCUGATT against SLIT1 it was inactive: 0.12. In the case of CGUGAAGCGGUAUGAGAAATT against RAP2A it was inactive: -0.727; in that of CAGAGACACUUCUACGAAATT against BTN1A1, inactive: 0.291; in that of GCACUUAAGGAAUGACAGATT against CDY2A, inactive: 0.75. As to CGAACGAAGAAGAGCCGAATT against NFATC2, the median seed-adjusted z-score is inactive: 0.183. Take CCAUCUCUACCGACGAAGATT against ARHGEF1: the median seed-adjusted z-score is inactive: -0.0658. Consider CAAAUUCAAGGGCAUCAAATT against SNX33, for which the median seed-adjusted z-score is inactive: -0.246. The value for AGAUUGACAUCGCGGGAUATT against PDPR was inactive: -0.0653.

As to CAUGAUAUGUUUCACCGAATT against MYCBP2, the median seed-adjusted z-score was inactive: 0. On to GGUCUGUGCUAACAAGGAATT against GSR, for which the median seed-adjusted z-score was inactive: -0.467.

GGAUGAGUUUUUAGAUCUUTT against GPSM2: the median seed-adjusted z-score was inactive: -0.755. With CGUGCACAAAGAUAGACUATT against MATN2, the median seed-adjusted z-score is inactive: 0.275. In the case of CGGAUGAAAUGGAAACGCATT against MNX1 it was inactive: 0.734. The value for GAUAAUGCCCAGACAUUUUTT against CLDN11 was inactive: 0.268; that for GAAGUAACCAGAUCCAGUATT against RASA2 was inactive: -0.913; that for CCAGGAUCUUAAUGUUUCUTT against CLDN22 was inactive: 0.

Regarding GGAUCACACUGACCUUGGATT against ZDHHC23, the median seed-adjusted z-score is inactive: -0.536. The value for CAAGCAAACUGAUUCAGCATT against CDS2 was inactive: -0.811; that for GGAAGACUACCAAAUCGAATT against TTN was inactive: 0.872. Take GCUGAUCCCUUGCUAUGAATT against ITGA9: the median seed-adjusted z-score was inactive: 0. In the case of GCAACUUACAUCAACUACATT against PPP1R7 it was inactive: 0.0505. CAUGCGGCUUUAUAGCAUUTT against UBR3: the median seed-adjusted z-score is inactive: -0.894. As for CGUCAAUAAGAAAUCGCAATT against ZNF268, the median seed-adjusted z-score is inactive: 0.0358. In the case of GGAUGACAAAAGACUGAUUTT against NTM it was inactive: 0; in that of GGAGAGAGGUCCAGUCUGATT against BIRC7, active: -1.44.

Regarding GGAAAAUGGGAGUAUCUUATT against CDYL2, the median seed-adjusted z-score is inactive: -0.379. The value for AGCCGUCAAUUGUUCAUCUTT against CD59 was inactive: 0.79; that for GGACAUCUGUGCUGUCAAATT against SYN2 was inactive: -0.375; that for GAUUGACCUGCGUUACGAATT against ADCK2 was inactive: 0.0823.

With GCAUAUCUGCUAGGGAUAATT against MYO1E, the median seed-adjusted z-score was inactive: -0.02. In the case of GCAGAAGCGUGGCAUUGUGTT against INS it was inactive: 0; in that of CAAGUACUGUGGGACCAAATT against NRP2, inactive: 0.477; in that of CCAAGAAACUAACACGCUATT against PFKFB2, inactive: 0.311. In the case of ACACGGAGGUGUUCAGGAATT against SBF1 it was inactive: 0.192; in that of GCCUCAUGGUUCUAGUAAATT against E2F2, inactive: -0.382.

Consider UCGACGUGAUCAUCACUGATT against SRM, for which the median seed-adjusted z-score was inactive: 0. The value for AGAAGAACCAGAGCUUCAATT against MSL3 was inactive: 0.423; that for UGGUCAACCUGCAAGUGAATT against RHOD was inactive: 0; that for GUAACUGCAUUCAACUUGATT against OSMR was inactive: 0.548. For GUAUUUGUACGUUUUAUUUTT against SCRT1, the median seed-adjusted z-score is inactive: -0.483. Regarding GCACCAAACUUAGCUACGATT against DIS3L2, the median seed-adjusted z-score was inactive: -0.265. The value for GCAGAUAAAAUUAGAGUAATT against SRPK2 was inactive: 0.654.

As to GAAAGGACAUCACAGGUAATT against NQO1, the median seed-adjusted z-score was inactive: 0. Turning to CUGCCUUGAUGACACCAGATT against TRIM16, the median seed-adjusted z-score is inactive: 0.345.

GCAUCCACGUCAUUGACCATT against TBCB: the median seed-adjusted z-score is inactive: 0.69. The value for AGAAGACUCUGGUAAUGUATT against WHSC1 was active: 1.17; that for UCAACAUCGUCUACCAGGATT against SCNN1D was active: -1.8; that for GGAAGAGAUGGAUCAGAAATT against RNF11 was inactive: -0.365. In the case of CAUCUUAUCUACAUCUUAUTT against KCNK18 it was inactive: 0.115; in that of GAUUCUGGAUUAUACUCCATT against SLC24A2, inactive: 0.136.

On to CAAGAAUCAUUAAUACAAATT against CCL2, for which the median seed-adjusted z-score was inactive: 0.651. In the case of AAGUCAUCAAGUUUACUAATT against NR1I3 it was inactive: 0.000933. The value for CUUUAUCGGUGACAAGUUATT against ADCY7 was inactive: -0.0202; that for CGACGGCACCAACUUCACATT against SUSD2 was inactive: 0.422. In the case of GAACGACUGGGUAACAGUATT against CDH17 it was inactive: -0.167; in that of AGAUCAUCGCGUUCAGCAATT against PRDX2, inactive: -0.359; in that of AGAGAGGAGUGAAUAACUUTT against OGFOD2, inactive: 0.493.

With CUUUAGAAGGAUUAGAUUATT against PCDHGA7, the median seed-adjusted z-score is inactive: 0.705. In the case of GGAUUUAUCAAGGGACGAATT against ACADL it was inactive: 0.223; in that of CCGCCUCUUUAGUUAUACATT against PDK4, inactive: -0.693; in that of ACCUGACUAUCACCAUGCATT against CD7, inactive: 0.249.

As to GUUUGAUAUGGAUCGCUUATT against PROX1, the median seed-adjusted z-score is inactive: -0.372.

As for GAAUGGACAAGGUACCAGATT against ATP12A, the median seed-adjusted z-score is inactive: -0.0941. In the case of CAUCAUUACUGUUGAGGGATT against CSRP2BP it was inactive: -0.526. The value for CGAAAAGUCUCACAGUGGATT against ZNF563 was inactive: 0.00283.

CCUUACUCUCCAUCAAAUATT against ZNF383: the median seed-adjusted z-score was inactive: -0.196. In the case of GCAACACUGUGGUCAUGGUTT against ALDH16A1 it was inactive: 0.42; in that of CACUUCGGAUUUUACCGUATT against CDADC1, inactive: 0.544.

In the case of CCAGUAGCCCAGACUAAGATT against PTPRK, the median seed-adjusted z-score was inactive: 0. On to GUGUCUGGAUUUUCACUGATT against F11, for which the median seed-adjusted z-score was inactive: -0.0319. For the sequence GCGAGUAUCUGAUCCAGCATT against ABCB9, the median seed-adjusted z-score was inactive: 0.151. Regarding GGUUGUAAUUCUACUCUAATT against ZNF572, the median seed-adjusted z-score is inactive: 0.237. The value for GGACCUAUACUUACGAAAATT against CTNNB1 was inactive: 0.0802; that for GGUGGGCGUGAGUUUCUUATT against B3GNT6 was inactive: 0.00618; that for GGCUCUUACAGGUGAAUCATT against GRIP1 was inactive: 0.337.

Consider GGCCUAUACUAAUUGCUUUTT against ZNF705A, for which the median seed-adjusted z-score is inactive: 0.669. For the sequence CAGCUACAUUUGCACAACATT against BCL11B, the median seed-adjusted z-score is inactive: 0.163.

As to GAGUGUUCAUUUUUCGUUUTT against POU3F1, the median seed-adjusted z-score is inactive: 0.279. In the case of GGCUAGGGAUACUCACUCATT against NAGK, the median seed-adjusted z-score was inactive: 0.446. In the case of CACCGUGUUUGACAACUAUTT against RAC2 it was inactive: -0.596; in that of UGUUAUAAGUCGAACUGAATT against RBBP6, inactive: -0.212. The value for GUUCUCCCGUGAGAAGAAATT against ADRA1D was inactive: -0.18; that for GGAGGUUCUUCUGAGUACATT against SMC1A was inactive: -0.362; that for CCAUGGAUUUAUUACGAGUTT against WDR64 was inactive: -0.25. In the case of GGAUAUGAACCACACGGAATT against GPR143, the median seed-adjusted z-score was inactive: 0.366. In the case of CCGAAAGUCUGCAUCCAAATT against ACTR8 it was inactive: -0.366. The value for CAGCAUGACCGGUCAGAUATT against CDADC1 was inactive: 0.544.

On to GCAAUGUAGAAGGCCUAUATT against ROM1, for which the median seed-adjusted z-score is inactive: 0.41.

Consider CAAUCCAAGUAGAAUGAAUTT against ECHDC1, for which the median seed-adjusted z-score was inactive: 0.554. Turning to GAUGGAUACGAAUUCAAGUTT against LGALS1, the median seed-adjusted z-score is inactive: 0.033. On to GGCUCACGGCUGCAUUUGATT against BPHL, for which the median seed-adjusted z-score is inactive: -0.161. In the case of CUUCACUACUGGUAAUUAATT against PRMT6 it was inactive: -0.412; in that of GCAGUUGAAUUACUAGGAATT against NAPG, inactive: 0.0128; in that of GCAGCUGUUUGGAACCAAATT against TRIM47, inactive: 0.707. For the sequence GCAAGGCAAUGACAAUGGUTT against 1-Mar, the median seed-adjusted z-score was inactive: 0. The value for GGAAAGUAGCAGACCUAGATT against TOPORS was inactive: 0.381; that for GGAAAAGCGAAUAAAGGAATT against MYB was inactive: 0.307; that for CAGACACCAUACUCCAUUATT against MYO7B was inactive: -0.167. In the case of AGGGCAACAUCAUCGCAUUTT against NEURL it was inactive: -0.268; in that of GGAAGCCCAUGACCACUAATT against GTF2F1, inactive: -0.556; in that of CCAUAACACCGGAUCAAGUTT against FIGNL1, inactive: -0.408.

Consider GAAACUCUCUUCAAGUCUATT against CKB, for which the median seed-adjusted z-score was inactive: -0.236. In the case of GACCAUCUAUUUAAGCUGATT against AARSD1 it was inactive: -0.156; in that of GCGCAACAGCGAACUAGAATT against MID2, inactive: -0.0363. In the case of GGAUUUCACCGUCGUCUUUTT against PGA5 it was inactive: -0.149; in that of GGAAUGCAAUUCUCAGAGATT against LCN2, inactive: 0.123; in that of CACCGUUCAUCUGCACAGATT against KATNA1, inactive: -0.471.
